These are yes or no findings as the source states them, for the method shown. Binding seen in cells or lysates may run through a third protein. Here binding means that the protein was enriched with, or labelled near, the bait; the list need not be complete.

By UniProt entry, the sequences of proteins in these tests, tags left out. Where a name states a change or a piece, a line headed by the entry shows the natural chain unless it says otherwise.
UniProt E9AM47: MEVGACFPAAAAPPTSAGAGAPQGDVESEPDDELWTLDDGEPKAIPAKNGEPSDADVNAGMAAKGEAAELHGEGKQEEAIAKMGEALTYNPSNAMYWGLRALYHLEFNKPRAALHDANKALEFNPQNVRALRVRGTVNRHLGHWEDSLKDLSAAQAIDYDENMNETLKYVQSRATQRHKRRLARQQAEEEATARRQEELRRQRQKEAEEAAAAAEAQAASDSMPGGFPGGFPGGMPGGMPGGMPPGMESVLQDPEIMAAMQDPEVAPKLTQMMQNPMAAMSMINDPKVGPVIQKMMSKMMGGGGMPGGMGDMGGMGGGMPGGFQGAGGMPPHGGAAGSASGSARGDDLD
UniProt E9ALS6: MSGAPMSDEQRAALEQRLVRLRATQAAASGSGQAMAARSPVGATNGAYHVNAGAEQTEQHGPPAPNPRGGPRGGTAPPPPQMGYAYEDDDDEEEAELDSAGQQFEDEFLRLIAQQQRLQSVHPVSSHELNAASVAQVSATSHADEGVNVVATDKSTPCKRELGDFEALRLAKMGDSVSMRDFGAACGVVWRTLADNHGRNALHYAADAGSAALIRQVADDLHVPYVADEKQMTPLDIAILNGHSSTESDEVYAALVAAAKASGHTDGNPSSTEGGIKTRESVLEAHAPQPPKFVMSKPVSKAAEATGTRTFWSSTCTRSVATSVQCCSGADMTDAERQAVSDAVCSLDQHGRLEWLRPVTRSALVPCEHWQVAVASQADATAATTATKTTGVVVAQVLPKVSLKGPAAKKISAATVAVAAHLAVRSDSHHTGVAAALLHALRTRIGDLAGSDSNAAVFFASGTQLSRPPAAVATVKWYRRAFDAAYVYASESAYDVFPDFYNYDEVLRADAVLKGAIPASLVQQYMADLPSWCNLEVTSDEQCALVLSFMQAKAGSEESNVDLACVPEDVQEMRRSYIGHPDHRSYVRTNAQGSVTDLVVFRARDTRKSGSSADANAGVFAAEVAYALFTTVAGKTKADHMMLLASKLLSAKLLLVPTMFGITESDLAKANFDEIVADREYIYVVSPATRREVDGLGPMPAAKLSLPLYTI
UniProt E9AQR7: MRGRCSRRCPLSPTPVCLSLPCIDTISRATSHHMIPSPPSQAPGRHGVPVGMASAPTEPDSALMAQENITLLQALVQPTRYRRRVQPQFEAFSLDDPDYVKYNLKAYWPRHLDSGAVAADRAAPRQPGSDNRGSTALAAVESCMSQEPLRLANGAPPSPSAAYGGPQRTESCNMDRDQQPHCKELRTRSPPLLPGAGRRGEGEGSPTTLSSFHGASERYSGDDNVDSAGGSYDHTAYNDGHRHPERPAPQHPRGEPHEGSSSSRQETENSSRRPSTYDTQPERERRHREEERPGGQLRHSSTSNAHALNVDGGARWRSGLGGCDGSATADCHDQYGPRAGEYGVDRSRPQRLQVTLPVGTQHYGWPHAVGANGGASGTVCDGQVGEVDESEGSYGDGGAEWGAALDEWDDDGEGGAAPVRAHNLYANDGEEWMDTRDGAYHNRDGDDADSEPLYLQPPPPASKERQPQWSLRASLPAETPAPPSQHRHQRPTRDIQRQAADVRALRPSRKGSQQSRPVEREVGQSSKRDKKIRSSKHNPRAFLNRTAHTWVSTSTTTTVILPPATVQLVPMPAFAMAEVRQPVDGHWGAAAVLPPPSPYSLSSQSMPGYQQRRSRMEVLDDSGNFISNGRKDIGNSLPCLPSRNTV
UniProt E9B5D9: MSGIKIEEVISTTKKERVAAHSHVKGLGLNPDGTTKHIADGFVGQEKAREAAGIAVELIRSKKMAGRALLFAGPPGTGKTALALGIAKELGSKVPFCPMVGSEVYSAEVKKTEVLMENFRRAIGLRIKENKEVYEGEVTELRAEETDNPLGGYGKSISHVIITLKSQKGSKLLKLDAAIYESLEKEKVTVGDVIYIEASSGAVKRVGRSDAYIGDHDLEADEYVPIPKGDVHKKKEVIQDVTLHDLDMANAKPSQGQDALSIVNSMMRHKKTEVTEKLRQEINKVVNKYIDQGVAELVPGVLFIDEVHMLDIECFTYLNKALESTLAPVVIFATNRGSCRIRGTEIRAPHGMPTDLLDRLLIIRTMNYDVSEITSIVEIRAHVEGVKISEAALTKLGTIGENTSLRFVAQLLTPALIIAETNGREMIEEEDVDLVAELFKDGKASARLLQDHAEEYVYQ
UniProt E9B552: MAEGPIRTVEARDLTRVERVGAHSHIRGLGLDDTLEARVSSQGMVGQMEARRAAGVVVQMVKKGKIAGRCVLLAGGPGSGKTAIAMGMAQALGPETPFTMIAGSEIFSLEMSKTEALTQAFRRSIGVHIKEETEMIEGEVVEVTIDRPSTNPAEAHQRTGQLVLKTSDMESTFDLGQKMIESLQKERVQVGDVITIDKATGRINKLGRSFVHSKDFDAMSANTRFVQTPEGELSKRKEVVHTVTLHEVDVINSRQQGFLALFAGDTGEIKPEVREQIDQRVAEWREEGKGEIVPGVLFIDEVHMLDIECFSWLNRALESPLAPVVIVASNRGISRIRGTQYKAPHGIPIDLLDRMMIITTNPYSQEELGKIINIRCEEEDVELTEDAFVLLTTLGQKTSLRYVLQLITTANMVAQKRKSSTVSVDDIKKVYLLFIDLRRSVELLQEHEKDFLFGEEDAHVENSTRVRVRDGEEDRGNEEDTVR

Assay [1] concerns the target TOR1 (LmxM.36.6320), N-terminally Twin-Strep-tagged (L. mexicana) (UniProt E9AU66). The experiment in a line: affinity purification with mass spectrometry.
Assay [2] concerns the target RPTOR1 (LmxM.25.0610), N-terminally Twin-Strep-tagged (L. mexicana) (UniProt E9AXD8). The experiment in a line: affinity purification with mass spectrometry.

For “HIP (HSC-70 interacting protein, LmxM.08_29.0320) (from UniProt E9AM47)”, the binding entry in assay [1] is “binds”. In the case of LmxM.08_29.1470 (from UniProt E9ALS6), the binding entry in assay [2] and in assay [1] was “binds” each time. As for LmxM.16.1080 (from UniProt E9AQR7), the binding result in assay [2] and in assay [1] was “binds” in each case. For “RPTOR1 (LmxM.25.0610), N-terminally Twin-Strep-tagged (from UniProt E9AXD8)”, the binding result in assay [1] is reported as “binds”. On to “RUVBL1 (LmxM.33.3500) (from UniProt E9B5D9)”, for which the binding result in assay [1] is recorded as “binds”. On to “RUVBL2 (LmxM.33.2610) (from UniProt E9B552)”, for which the binding result in assay [1] was “binds”.

On to “TOR1 (LmxM.36.6320), N-terminally Twin-Strep-tagged (from UniProt E9AU66)”, for which, in assay [2], the binding result is “binds”.

For the origin of these results see publication doi:10.1101/2022.10.20.513059.
